# Experimental data published in PubChem BioAssay AID1117319 (Southern Research Institute, 2015).
# Chains of the proteins cited; added tags and fusions are not shown. Lines headed by an entry give the natural chain unless they say otherwise; changes in a name come on top.
# UniProt P69720: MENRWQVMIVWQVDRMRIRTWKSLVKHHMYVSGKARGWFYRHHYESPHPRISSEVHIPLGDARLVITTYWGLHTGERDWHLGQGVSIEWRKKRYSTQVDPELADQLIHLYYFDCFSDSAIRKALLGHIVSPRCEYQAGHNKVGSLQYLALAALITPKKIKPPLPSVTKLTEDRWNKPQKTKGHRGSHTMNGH
# UniProt P69721: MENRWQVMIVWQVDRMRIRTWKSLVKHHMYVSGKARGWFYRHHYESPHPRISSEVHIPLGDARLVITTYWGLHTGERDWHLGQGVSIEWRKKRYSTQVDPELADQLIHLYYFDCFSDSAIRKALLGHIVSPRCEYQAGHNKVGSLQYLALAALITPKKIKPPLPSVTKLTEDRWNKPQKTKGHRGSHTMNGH
# UniProt P69722: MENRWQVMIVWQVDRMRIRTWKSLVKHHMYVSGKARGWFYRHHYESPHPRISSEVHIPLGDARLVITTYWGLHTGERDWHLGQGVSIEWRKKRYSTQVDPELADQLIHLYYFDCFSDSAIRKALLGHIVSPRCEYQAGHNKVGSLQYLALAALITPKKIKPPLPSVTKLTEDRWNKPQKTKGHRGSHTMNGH
# UniProt P69723: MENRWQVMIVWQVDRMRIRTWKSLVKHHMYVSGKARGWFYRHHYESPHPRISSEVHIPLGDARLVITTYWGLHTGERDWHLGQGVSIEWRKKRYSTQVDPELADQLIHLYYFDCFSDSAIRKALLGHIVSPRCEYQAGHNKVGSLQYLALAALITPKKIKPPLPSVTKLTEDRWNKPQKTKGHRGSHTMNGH
# UniProt Q9HC16: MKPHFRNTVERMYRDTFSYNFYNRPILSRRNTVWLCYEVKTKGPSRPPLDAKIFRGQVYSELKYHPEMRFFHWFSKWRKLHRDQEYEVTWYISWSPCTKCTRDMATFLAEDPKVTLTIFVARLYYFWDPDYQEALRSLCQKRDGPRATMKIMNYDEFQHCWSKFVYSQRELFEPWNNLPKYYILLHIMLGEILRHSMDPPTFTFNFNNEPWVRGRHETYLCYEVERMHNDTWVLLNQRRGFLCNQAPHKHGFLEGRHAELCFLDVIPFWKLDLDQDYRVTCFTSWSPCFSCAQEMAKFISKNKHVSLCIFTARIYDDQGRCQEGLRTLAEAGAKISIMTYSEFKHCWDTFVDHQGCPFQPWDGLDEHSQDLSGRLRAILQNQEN
# In all, about 260,000 compounds went through this assay and about 1,500 (0.58%) were called active. Inconclusive results, whose numbers are uncertain, are shown with a selection of clear calls.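 Rule for the calls: active = inhibition above a set limit at one or more doses, reproduced on every date tested; inconclusive = results disagree between test dates, or hit never tested in dose response; inactive = the rest.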
# Target: Virion infectivity factor (Human immunodeficiency virus type 1 group M subtype B (isolate BH10)) + Virion infectivity factor (Human immunodeficiency virus type 1 group M subtype B (isolate BRU/LAI)) + Virion infectivity factor (Human immunodeficiency virus type 1 group M subtype B (isolate PCV12)) + Virion infectivity factor (Human immunodeficiency virus type 1 group M subtype B (isolate HXB2)) + DNA dC->dU-editing enzyme APOBEC-3G (Homo sapiens) (UniProt P69720+P69721+P69722+P69723+Q9HC16)
# Assay: inhibitors of Vif binding to APOBEC3G peptide, primary screen, biochemical, TR-FRET, GST-Vif 1-94, biotin-A3G peptide, dose response retest (AID 1117319);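 note: Vif residues 1-94 fused to GST binding biotinylated APOBEC3G peptide 110-148; 0% = full assay without inhibitor and 100% = GST in place of GST-Vif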
# Conditions: hits give high values
row,SMILES,inhibition
1,O=C1CN(c2cc(Cl)cc(Cl)c2)C(=O)CN1/N=C/c1cccnc1,inconclusive: 41.1%
2,CCOc1ccc(NC(=O)CCC(=O)N/N=C/c2ccc([N+](=O)[O-])s2)cc1,inconclusive: 37.8%
3,COc1ccc(CCNC(=O)COc2coc(CN3c4ccccc4CC3C)cc2=O)cc1OC (stereo unspecified),inactive: 3.96%
4,COc1cc2nc(N(CCN(C)C)C(=O)c3ccc4ccccc4c3)sc2cc1OC,inactive: -3.84%
5,Cn1ncc(C#N)c1/N=C/N1CCCC1,inconclusive: 34.4%
6,Nc1nnc(SCC(=O)NCCOc2ccccc2)s1,inconclusive: 44.7%
7,O=C1c2ccccc2-c2onc3c(Oc4ccccc4)cc(O)c1c23,inconclusive: 43.3%
8,S=C1N(c2ccccc2)C(c2ccccc2)N2CCCN12 (stereo unspecified),inconclusive: 43.2%
9,Cc1ccccc1C(=O)OC(C)CN1CCN(C)CC1 (stereo unspecified),inconclusive: 36.8%
10,CC(CCc1ccccc1)NC(=O)/C=C/c1ccc(F)cc1 (stereo unspecified),inconclusive: 53.2%
11,COc1cc(NC(=O)c2cc3nc(C4CC4)cc(C(F)(F)F)n3n2)c(OC)cc1Cl,inconclusive: 42.5%
12,CCOC(=O)NC1CCS(=O)(=O)C1 (stereo unspecified),inconclusive: 1.38%
13,CCN1C(=O)CC(N2CCN(c3ccc(Cl)cc3)CC2)C1=O (stereo unspecified),inconclusive: 58.3%
14,CCOCCCN1C(=O)CN(C2CCCCC2)C(=O)C1c1ccc(OC)c(OC)c1 (stereo unspecified),inconclusive: 35.9%
15,O=C(O)c1cccc(CSc2nnc(Cc3ccccc3)o2)c1,inconclusive: 42.7%
16,COCCCN1C(=O)C(=O)/C(=C(/O)c2ccc(OC(C)C)cc2)C1c1ccncc1 (stereo unspecified),inconclusive: 46.7%
17,CSCCC(NC(=O)c1ccco1)C(=O)NCCc1ccc(Cl)cc1 (stereo unspecified),inactive: -15.8%
18,O=S(=O)(NCC(O)COCc1ccco1)c1cccs1 (stereo unspecified),inconclusive: 36.3%
19,COc1cccc(C2/C(=C(/O)c3cnn(-c4ccccc4)c3C)C(=O)C(=O)N2CCN(C)C)c1 (stereo unspecified),inconclusive: 35.8%

# In the list so far, two have a thiophene ring, fused or not:
row,SMILES,inhibition
2,CCOc1ccc(NC(=O)CCC(=O)N/N=C/c2ccc([N+](=O)[O-])s2)cc1,inconclusive: 37.8%
18,O=S(=O)(NCC(O)COCc1ccco1)c1cccs1 (stereo unspecified),inconclusive: 36.3%

# Later entries.

row,SMILES,inhibition
1,CC(C)N(C(=O)[C@H]1C[C@H](CC(=O)NCCN2CCOCC2)C(=O)N2CCc3c([nH]c4ccc(Cl)cc34)[C@]12C)C(C)C,inactive: -2.31%
2,CCCCCn1c(-c2ccco2)nc2nc3ccccc3nc21,inconclusive: 46.5%
3,CCCCNC(=O)c1ccc2c(=O)n(CCCOCC)c(=S)[nH]c2c1,inconclusive: 41.1%
4,CC(=O)/C=C/c1ccc(C)o1,inconclusive: 57.2%
5,CC(=O)O[C@]1(C(C)=O)CC[C@H]2[C@@H]3C=C(C)C4=CC(=O)CC[C@]4(C)[C@H]3CC[C@@]21C,inconclusive: 40.5%
6,Cc1cc(Cl)c2c(c1)[C@]1(C(=O)N2)[C@@H]2C(=O)N(Cc3ccccc3)C(=O)[C@@H]2[C@@H]2CCCN21,inactive: 28.3%
7,Cc1cc(=O)[nH]c(SCC(=O)N2c3ccccc3CC2C)n1 (stereo unspecified),inconclusive: 60.9%
8,O=C(CN1CCCCC1)NCCNC(=O)CN1CCCCC1,inactive: -5.6%
9,COC(=O)c1cc2c(cc1Cl)N1CCCCCC1=NS2(=O)=O,inconclusive: 43.6%
10,CCCCOc1ccc(C(=O)NN2C(=O)NC3(CCCCC3)C2=O)cc1OC,inactive: 2.72%
11,CCCCC1=CC2=CC(=O)C(C)(OC(=O)CC)C(=O)C2=CN1Cc1ccc2c(c1)OCO2 (stereo unspecified),inconclusive: 33.7%
12,CC(=O)Nc1nc(-c2ccc(Cl)cc2)ns1,inconclusive: 43.5%
13,COc1ccc(NC(=O)/C=C/c2ccc(C)o2)cc1S(=O)(=O)N1CCOCC1,inactive: 22.6%
14,NNC(=O)C1=NOC2COC3(CCN(c4ncccn4)CC3)OCC12 (stereo unspecified),inconclusive: 40.5%
15,Oc1ccc(N2CCN(c3nc(-c4cccs4)nc4ccccc34)CC2)cc1,inconclusive: 38.7%
16,COc1ccc(CCNC(=O)c2ccc(CN3CCOCC3)cc2)cc1,inconclusive: 38%
17,CC1=C(C(=O)NCc2ccccc2)C(c2cccnc2)n2ncnc2N1 (stereo unspecified),inconclusive: 42.9%
18,Cc1cc(C)n(/N=C/c2ccc(C(C)C)cc2)c(=O)c1C#N,inconclusive: 35%
19,COc1ccc(OC)c(/C=c2\sc3nc(-c4cccs4)nn3c2=O)c1,inactive: 10.3%

row,SMILES,inhibition
1,CCN(CC(=O)Nc1ccc2c(c1)OCCO2)C(=O)C1CCCCC1,inconclusive: 36.4%
2,Cc1nc2nc(C(F)(F)F)[nH]c2nc1C,inactive: 0.02%
3,COc1cc(OC)c(NC(=O)Nc2ccc(OC)c(OC)c2)cc1Cl,inconclusive: 60.4%
4,O=S(=O)(c1ccc2c(c1)CCCN2)N1CCCCC1,inactive: 8.06%
5,COc1ccc(OC)c(NC(=O)C2C(C(=O)O)C3(Cl)C(Cl)=C(Cl)C2(Cl)C3(Cl)Cl)c1 (stereo unspecified),inconclusive: 36%
6,CN(C)c1c([N+](=O)[O-])cc2[nH]c(=O)[nH]c2c1[N+](=O)[O-],inconclusive: 56.7%
7,Cc1cc(C(=O)NCC(c2ccco2)N(C)C)no1 (stereo unspecified),inconclusive: 34.9%
8,CCOCCCNC(=O)c1ccc2nc(-c3ccc(OC)c(OC)c3)c(-c3ccc(OC)c(OC)c3)nc2c1,inactive: -0.07%
9,COc1ccc(/C=N/NC(=O)CCCOc2ccc(Cl)cc2Cl)cc1[N+](=O)[O-],inconclusive: 53.6%
10,Cc1ccc(CC(=O)NCC(c2ccco2)N(C)C)cc1C (stereo unspecified),inconclusive: 42.1%
11,O=C(CN1C(=O)C2C3C=CC(C3)C2C1=O)NCc1ccc2c(c1)OCO2 (stereo unspecified),inconclusive: 36.9%
12,Cc1ccc2c(c1C)NC(C)CC2C (stereo unspecified),inconclusive: 54.5%
13,CN(C)c1nc2n(c(=O)n1)C(C#N)CS2 (stereo unspecified),inconclusive: 40.1%
14,Clc1cccc(Oc2ncc(CN3CCOCC3)s2)c1,inconclusive: 41.1%
15,CCOC(=O)c1cccc(NC(=O)CCn2cccc2)c1,inconclusive: 31.1%
16,COC(=O)[C@@H]1CC[C@H](C)[C@@H](c2ccc(C)cc2)N1C(=O)c1ccc(/C=N/O[C@@H](C)c2cn([C@H](CO)Cc3ccccc3)nn2)cc1,inconclusive: 44.4%
17,Cc1c(C)n(O)c2ccc3nonc3c12,inconclusive: 40%
18,Cc1nnc(N/N=C/c2cc(C)n(-c3ccc(F)cc3)c2C)n1N,inconclusive: 35.8%
